# Experimental data: PubChem BioAssay AID1347076 (National Center for Advancing Translational Sciences (NCATS), 2019)
# Out of some 400,000 compounds screened, about 13,000 (3.2%) were called active. Inconclusive results, whose numbers are uncertain, are shown with a selection of clear calls. Calls come from the whole dose curve; as a rule, active = well fitted cell-killing curve with a large enough effect; inconclusive = small, poorly fitted or top-dose-only effect, or effect the other way; inactive = flat fitted curve, though single readings scatter. A potency beside an inconclusive call is a rough fit, not a confirmed value.
# Experiment: qHTS assay for MDR1-selective chemotherapeutics: Primary screen using the drug-selected MDR subline cells KB-V1; note: nearly all actives have a fitted effect of over 60% in size
# Settings: KB-V1 MDR cells viability, CellTiter-Glo, 72 h; activity change, negative = cytotoxicity: at 46.1 µM (top of the series)
# Summary of the method: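 KB-V1, DMEM (no phenol red) + 10% FBS; cpd pin-transferred, titration series; 72 h, 37 degrees C; CellTiter-Glo, luminescence. Data normalized, curve-fit.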
# % is set by controls: 0 for no effect and ±100 for the full control effect; potency is the fitted concentration of half-maximal effect.
SMILES,Potency,"activity change, negative = cytotoxicity"
Cc1ccc(S(=O)(=O)N(C)C[C@H]2OCc3cn(nn3)CCCC(=O)N([C@H](C)CO)C[C@@H]2C)cc1,"inconclusive: 29.1 µM [rising, single point]",–
O=c1[nH]c2ccccc2n1C1CCCCC1,"inconclusive: 14.6 µM [cytotoxic, partial curve]",–
CN(C)C(CNC(=O)c1cc2ccccc2o1)c1ccccc1 (centres undefined),active: 16.4 µM,–
O=C(CN(c1cccc([N+](=O)[O-])c1)S(=O)(=O)c1ccccc1)NCc1ccccc1,active: 5.8 µM,–
O=C(Oc1cc(=O)oc2c1c(=O)n1c3c(cccc23)CC1)c1ccccc1,–,inactive: -13.2%
CCOc1ccc2nc(SCC(=O)Nc3cc(C)on3)c(C)cc2c1,"inconclusive: 0.259 µM [cytotoxic, full curve, poor fit]",–
Cc1ccccc1NC(=O)CSc1nnc(COc2ccc(Cl)cc2)o1,–,inactive: 15.9%
COc1ccc(NC(=O)CN2C(=O)NC(C)(Cc3ccc(OC)c(OC)c3)C2=O)cc1 (centres undefined),–,inactive: 26%
COc1ccccc1CC(=O)Nc1ccc([N+](=O)[O-])cc1O,"inconclusive: 32.6 µM [cytotoxic, single point]",–
COc1cccc(-c2cc(C(=O)Nc3cc(OC)c(OC)c(OC)c3)no2)c1,active: 3.66 µM,–
COC(=O)c1ccc(C2=NOC(C)(c3nnc(-c4cccc(Cl)c4)o3)C2)cc1 (centres undefined),"inconclusive: 1.03 µM [rising, full curve]",–
COC(=O)c1ccc2nc(-c3ccc(Cl)cc3)c(CC3CCCCC3)n2c1,active: 16.4 µM,–
c1ccc(Cn2cc(CSc3ccccc3)nn2)cc1,–,inactive: 0.612%
NC(=O)CCC(NS(=O)(=O)c1ccc(Cl)cc1)C(=O)NCC1CCCCC1 (centres undefined),"inconclusive: 2.91 µM [cytotoxic, partial curve, poor fit]",–
CC(=O)c1cccc(NS(=O)(=O)c2ccc3c(c2)oc(=O)n3C)c1,active: 16.4 µM,–
O=C(COC(=O)/C=C/c1ccccc1)NC1CC1,"inconclusive: 23.1 µM [rising, single point]",–
CCOC(=O)C1=CCN(S(=O)(=O)c2ccc(Br)cc2)C1c1ccccc1 (centres undefined),"inconclusive: 4.11 µM [cytotoxic, full curve]",–
C=CCNC1=C(Cl)C(=O)N(c2cccc(Cl)c2Cl)C1=O,"inconclusive: 20.6 µM [rising, single point]",–
COc1ccc(OC)c(CCNC(=O)c2ccc(CS(=O)Cc3ccc(Cl)cc3)o2)c1 (centres undefined),–,inactive: -6.4%
O=C1c2[nH]nc(-c3ccccc3O)c2C(c2cccc(O)c2)N1Cc1ccncc1 (centres undefined),"inconclusive: 6.51 µM [rising, full curve, poor fit]",–
CCNc1nc(NCC)nc(-n2cc(C(=O)c3cc(Cl)ccc3O)cn2)n1,"inconclusive: 29.1 µM [cytotoxic, single point]",–
Cc1ccc(NC(=O)CSc2nnc(-c3ccncc3)o2)cc1C,"inconclusive: 29.1 µM [rising, single point]",–
CCOc1ccc(N2CCc3c(C)nc(SC)nc32)cc1,"inconclusive: 18.4 µM [cytotoxic, single point]",–

SMILES,Potency,"activity change, negative = cytotoxicity"
COc1cccc(C(C)(O)c2nc(-c3ccc4ccccc4c3)cs2)c1 (centres undefined),"inconclusive: 29.1 µM [cytotoxic, single point]",–
O=C(CNc1cccc([N+](=O)[O-])c1)N/N=C/c1ccc([N+](=O)[O-])o1,"inconclusive: 29.1 µM [cytotoxic, single point]",–
O=C(CN1C(=O)COc2ccc(S(=O)(=O)N3CCCC3)cc21)N1CCN(c2ccc(Cl)cc2)CC1,"inconclusive: 10.3 µM [cytotoxic, partial curve]",–
c1ccc2c(N=NN3CCCCC3)ccnc2c1,–,inactive: -6.1%
C=CCOC(=O)C1=C[C@@H](c2coc3ccccc3c2=O)[C@H](CCCO)[C@@H](OCC)O1,–,inactive: -15.1%
Cc1ccc2c(c1)N(S(=O)(=O)c1cc(-c3onc(C)c3C)ccc1C)CCO2,"inconclusive: 29.1 µM [cytotoxic, single point]",–
c1ccc2c(c1)CCN(c1nc3cc4c(cc3s1)OCO4)C2,"inconclusive: 29.1 µM [cytotoxic, single point]",–
COc1cc(C(=O)Nc2nc3ccc(C)cc3s2)ccc1OCc1c(C)noc1C,"inconclusive: 35.5 µM [cytotoxic, single point]",–
COc1ccc(-n2c(C)cc(=O)[nH]c2=O)cc1,"inconclusive: 29.1 µM [rising, partial curve, poor fit]",–
CCOc1cccc(C(=O)Nc2cccc(C(=O)NCC(C)C)c2)c1,"inconclusive: 8.2 µM [cytotoxic, partial curve]",–
CCN1CCN(CC(O)COCC2COc3ccccc3O2)CC1 (centres undefined),–,inactive: -0.713%
COc1cc2c(cc1OC)C(C)N(C(=O)CCNC(=O)c1ccccc1)CC2 (centres undefined),–,inactive: 0.468%
CCC(=O)c1c[nH]c(C(=O)NCCCn2ccnc2)c1,–,inactive: 4.65%
CC(=O)Oc1ccc(-c2ccc(C(=O)Nc3cccc(S(=O)(=O)N4CCOCC4)c3)cc2)cc1,"inconclusive: 18.4 µM [cytotoxic, single point]",–
CCC(CC)NC(=O)COC(=O)c1ccc(NS(=O)(=O)c2ccc3c(c2)OCCO3)cc1,"inconclusive: 29.1 µM [cytotoxic, single point]",–
COc1ccc(CC(=O)Nc2ccc(-c3noc(-c4ccc(Cl)cc4)n3)cc2)cc1,"inconclusive: 1.64 µM [cytotoxic, full curve]",–
COC(=O)c1ccc(C)c(NC(=O)CN(c2ccc3c(c2)OCO3)S(C)(=O)=O)c1,"inconclusive: 16.4 µM [cytotoxic, partial curve]",–
CSc1ccccc1NC(=O)CN(C)C(=O)CNC(=O)c1ccc(Oc2ccccc2)cc1,"inconclusive: 9.2 µM [cytotoxic, partial curve]",–
CCc1ccc2[nH]c(O)c(N=Nc3nc(-c4ccccc4)cs3)c2c1,"inconclusive: 20.6 µM [cytotoxic, partial curve]",–
Cc1ccc(S(=O)(=O)N2CCN(C(=O)CSc3ccc(Cl)cc3)CC2)cc1,–,inactive: -8.08%
Cc1ccc(Cl)cc1N1CCN(C(=O)c2ccc(CN3CCOCC3)cc2)CC1,–,inactive: 0%
COc1cccc(-c2nc(CS(=O)(=O)CC(=O)NCCC(C)C)c(C)o2)c1,–,inactive: -18.1%
Cn1c(=O)c2c(SCc3cccc(C(F)(F)F)c3)nc(-c3ccco3)nc2n(C)c1=O,"inconclusive: 2.31 µM [cytotoxic, full curve, poor fit]",–

# Complete entries, looked up by structure.
# CCOc1ccc(N2CCc3c(C)nc(SC)nc32)cc1 as listed: Potency: inconclusive: 18.4 µM [cytotoxic, single point]
# c1ccc2c(c1)CCN(c1nc3cc4c(cc3s1)OCO4)C2 as listed: Potency: inconclusive: 29.1 µM [cytotoxic, single point]
# COc1cccc(-c2cc(C(=O)Nc3cc(OC)c(OC)c(OC)c3)no2)c1 as listed: Potency: active: 3.66 µM

# Next records

SMILES,Potency,"activity change, negative = cytotoxicity"
CCn1c(=O)c([N+](=O)[O-])c(NCCCn2ccnc2)c2ccccc21,"inconclusive: 20.6 µM [rising, single point]",–
Cc1cc(C)c2c(-n3cccc3)c(C(=O)NNS(=O)(=O)c3ccc(Br)cc3)sc2n1,"inconclusive: 20.6 µM [cytotoxic, single point]",–
C/C(=N/NC(=O)c1ccc(C)s1)c1cccnc1,"inconclusive: 29.1 µM [rising, single point]",–
c1ccc(-c2nc(N3CCCCCC3)nc(-n3ccnc3)n2)cc1,"inconclusive: 35.5 µM [cytotoxic, single point]",–
COc1ccc(-c2cc3ccc(OC)cc3cn2)cc1,–,inactive: -3.94%
COc1ccc(S(=O)(=O)N2CCCCCC2)cc1C(=O)N1CCN(c2ccccc2C)CC1,"inconclusive: 20.6 µM [cytotoxic, single point]",–
O=C(CSc1nnc(CNC(=O)c2ccccc2F)o1)NCc1ccco1,–,inactive: 2.27%
N/C(=N\OC(=O)c1ccccc1)C(C(=O)NOC(=O)c1ccccc1)C1CCCCC1 (centres undefined),"inconclusive: 29.1 µM [cytotoxic, single point]",–
Cc1ccc(C(=O)N/N=C\c2ccc(-c3ccc(Cl)cc3)o2)cn1,"inconclusive: 20.6 µM [cytotoxic, single point]",–
Cc1ccc(Cc2cnc(N3C(=N)SC(C)C3=O)s2)cc1 (centres undefined),"inconclusive: 29.1 µM [cytotoxic, single point]",–
CC[C@@]1(C(=O)OC)N[C@H](CN(C)S(=O)(=O)c2ccc(OC)cc2)[C@@H]2C(=O)N(C)C(=O)[C@@H]21,–,inactive: 4.62%
COc1ccccc1C(=O)NCCn1cc(SCc2ccc(C)cc2)c2ccccc21,–,inactive: -6.11%
C/C(Cn1cnc([N+](=O)[O-])n1)=N\NC(=O)c1ccncc1,"inconclusive: 29.1 µM [rising, single point]",–
N#Cc1cccc(S(=O)(=O)NCc2nnc3ccccn23)c1,"inconclusive: 9.2 µM [rising, partial curve]",–
CC(C)C(=O)Nc1c(-c2ccccc2Cl)c(=O)c2ccccc2n1C,"inconclusive: 29.1 µM [cytotoxic, single point]",–
COc1ccc(C(=O)COC(=O)CNC(=O)c2ccc(Cl)cc2Cl)c(OC)c1,"inconclusive: 4.11 µM [rising, full curve]",–
CCC(C(=O)NCCc1ccc(OC)cc1OC)n1nc(C)n2c(cc3occc32)c1=O (centres undefined),–,inconclusive: -47.2%
COc1ccc(OC)c2sc(N3CCN(C(=O)c4ccc5c(c4)CCCC5)CC3)nc12,–,inactive: -15.8%
N=NC(=O)c1ccccc1Nc1c(O)[nH]c2ccccc12,"inconclusive: 14.6 µM [cytotoxic, partial curve, poor fit]",–
COc1ccc(C2CC(=O)N(Cc3ccc(F)cc3)c3ccccc3S2)cc1OC (centres undefined),active: 16.4 µM,–
CC1CC(C)(C)NC(=S)N1CCC(=O)NCCc1ccc(Cl)cc1 (centres undefined),"inconclusive: 23.1 µM [cytotoxic, partial curve, poor fit]",–
CC1CCCC(NC(=O)CN2C(=O)NC(c3ccccc3)(c3ccccc3)C2=O)C1C (centres undefined),"inconclusive: 9.2 µM [cytotoxic, partial curve, poor fit]",–
CCOC(=O)c1cc2sc(C)cc2n1CC(=O)N1CCN(C(=O)c2ccco2)CC1,"inconclusive: 5.8 µM [cytotoxic, full curve, poor fit]",–
